# Test results: the supplement of paper PMC3334620
# The full ranking holds about 33,000 sequences; the median of “E-score (-0.5 to 0.5)” is about -0.0059, and the highest 2% start at about 0.26. The list shows a part of the results.
# Target: T1, Cin5 (UniProt P40917)
# T1 sequence: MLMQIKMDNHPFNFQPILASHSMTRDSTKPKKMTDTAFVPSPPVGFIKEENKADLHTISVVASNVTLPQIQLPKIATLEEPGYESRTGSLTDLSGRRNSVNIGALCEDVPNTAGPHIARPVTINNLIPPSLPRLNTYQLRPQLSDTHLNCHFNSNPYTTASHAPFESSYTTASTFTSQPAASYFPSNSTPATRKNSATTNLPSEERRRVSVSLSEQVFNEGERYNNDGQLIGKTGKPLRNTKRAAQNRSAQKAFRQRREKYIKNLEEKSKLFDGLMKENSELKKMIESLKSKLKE
# Assay: PBM E-score (8-mer binding enrichment) (E-score (-0.5 to 0.5)); higher = stronger / more preferred TF binding
# Conditions: protein concentration: 100 nM; construct: GST-full length
# How it was run: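 Full-length yeast transcription factors or their DNA-binding domains, GST-tagged and expressed with PURExpress, were applied at about 100-200 nM to universal all-10-mer Agilent arrays. These arrays had been made double-stranded by primer extension on fresh or once-stripped slides. Detection used fluorescent anti-GST, normalisation used masliner, and E-scores for ungapped eight-base words pooled with reverse complements came from the Universal PBM Analysis Suite.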
row,Sequence,PBM E-score
1,CAACGCGC,0.201
2,AGCAACAA,0.143
3,ACGGTGAT,0.036
4,TAATCCCA,0.0937
5,ATCCGTCG,0.036
6,GATTGGAC,0.0786
7,CGCCTCAG,-0.153
8,ATTTGATC,0.0618
9,AATACCCC,0.0429
10,CCTATCTA,-0.0781
11,ATGGAATA,0.322
12,AAAACCAG,0.0307
13,CCTAGAAC,0.00991
14,ACAACGCA,-0.00796
15,CCACTAAA,0.0784
16,AGTTGGAG,0.0277
17,CTGGTCTC,-0.224
18,GAACTGAC,-0.0717
19,GCAACCAC,0.0219
20,ACGTTGCC,-0.112
21,ACCCATTG,-0.0482
22,CATTAGAC,-0.297
23,GAGGGGTA,-0.105
24,GCTCATGA,-0.0154
25,AGAGCGAA,0.119

row,Sequence,PBM E-score
1,AGCGAGTA,0.146
2,GATCTCAA,0.112
3,ACTGGCAC,-0.152
4,CTGAGACC,-0.238
5,GGATGGCC,-0.296
6,AGTGCCAA,-0.239
7,GGGTTTAC,0.0632
8,TATAAATA,0.283
9,ATACCTAA,0.286
10,ATACGCCG,-0.0917
11,AAAGCACA,0.0512
12,AACCTGCA,0.0994
13,GGTTACAA,0.0628
14,AATACATA,0.278
15,AACGGGCG,-0.00237
16,AAACTAGC,-0.0623
17,GGATAAAC,0.135
18,CCCCGTGA,-0.0426
19,CGCAGGTC,-0.2
20,GAGAATAA,0.208
21,AAGAAATC,0.00777
22,AGTTCGAT,0.106
23,AATGGGGG,-0.39
24,AACTCCGT,0.0562
25,AAGAAAGC,-0.0256

row,Sequence,PBM E-score
1,ACAGCCAT,0.0862
2,ACAACACA,0.123
3,CAACCGAA,0.147
4,GCGGGTAC,-0.0523
5,ACGGTAAG,0.0671
6,AGAATGGC,0.0927
7,AGGCAACT,0.146
8,TATCCTCA,0.0763
9,AAGGGACC,-0.0753
10,AACGAAAT,0.237
11,AACTGTAT,0.003
12,CCTCATAG,-0.0586
13,CCAGGAAG,-0.147
14,GCTAGTAC,-0.0928
15,TCATCGCA,-0.0628
16,AATAGTGA,0.0837
17,AGCACGTG,-0.0463
18,AGGGAGTG,-0.276
19,AGAGGCAG,-0.163
20,ACTAGCCC,-0.101
21,AATGCGTC,-0.0875
22,CGGCTACC,-0.0686
23,AGAGCCTC,-0.271
24,CTGGCTCC,-0.287
25,CAGAGATA,0.142

# Given with bars between the fields: part of the list above.
row | Sequence | PBM E-score
24 | GCTCATGA | -0.0154
25 | AGAGCGAA | 0.119
1 | AGCGAGTA | 0.146
2 | GATCTCAA | 0.112
3 | ACTGGCAC | -0.152
4 | CTGAGACC | -0.238
5 | GGATGGCC | -0.296
6 | AGTGCCAA | -0.239
7 | GGGTTTAC | 0.0632
8 | TATAAATA | 0.283
9 | ATACCTAA | 0.286
10 | ATACGCCG | -0.0917
11 | AAAGCACA | 0.0512
12 | AACCTGCA | 0.0994
13 | GGTTACAA | 0.0628
14 | AATACATA | 0.278
15 | AACGGGCG | -0.00237
16 | AAACTAGC | -0.0623
17 | GGATAAAC | 0.135
18 | CCCCGTGA | -0.0426
19 | CGCAGGTC | -0.2
20 | GAGAATAA | 0.208
21 | AAGAAATC | 0.00777
22 | AGTTCGAT | 0.106
23 | AATGGGGG | -0.39
24 | AACTCCGT | 0.0562
25 | AAGAAAGC | -0.0256
1 | ACAGCCAT | 0.0862
2 | ACAACACA | 0.123
3 | CAACCGAA | 0.147
4 | GCGGGTAC | -0.0523
5 | ACGGTAAG | 0.0671
6 | AGAATGGC | 0.0927
7 | AGGCAACT | 0.146
8 | TATCCTCA | 0.0763
9 | AAGGGACC | -0.0753
10 | AACGAAAT | 0.237
11 | AACTGTAT | 0.003
12 | CCTCATAG | -0.0586
13 | CCAGGAAG | -0.147
14 | GCTAGTAC | -0.0928
15 | TCATCGCA | -0.0628
16 | AATAGTGA | 0.0837
17 | AGCACGTG | -0.0463
18 | AGGGAGTG | -0.276
19 | AGAGGCAG | -0.163
20 | ACTAGCCC | -0.101
21 | AATGCGTC | -0.0875
22 | CGGCTACC | -0.0686

# Additional results follow.

row,Sequence,PBM E-score
1,ACGGGAAG,-0.108
2,GTTCCTTA,-0.0426
3,CAGAGTAA,-0.0253
4,GATCGCGA,0.113
5,TACGGAGA,-0.028
6,CTGTACAA,0.0657
7,TGACGAAA,0.099
8,CCGGTAAG,0.00312
9,GCGCTCTA,-0.114
10,TAACGCGA,0.061
11,GGTTTCGA,0.0244
12,ATGGGGAG,-0.00551
13,TATCTAAA,0.0519
14,AGATTGTA,0.156
15,AAAAAGCC,0.11
16,TACACGGA,0.158
17,GCCACAGC,-0.105
18,ATCTGTAG,-0.106
19,AACTCAAA,0.163
20,AAGCGACG,-0.149
21,CAGGGCAC,-0.0408
22,GCAGTACC,-0.0675
23,AGTAATAG,0.279
24,CTCGACTA,-0.104
25,CGATGGCC,-0.0987

row,Sequence,PBM E-score
1,AGGGGCCA,-0.0617
2,CGTAAGCC,0.39
3,GTAGGTGA,-0.0618
4,TCAGATGA,0.131
5,CCCACTAG,-0.177
6,GTGAGCTA,0.0179
7,CACATCGC,-0.06
8,AAAACGTC,0.0526
9,AAAGCCAC,-0.0749
10,AGGCCCGC,0.0122
11,GTCAAAAC,0.0876
12,GATAGTAA,0.195
13,TATGTACA,0.18
14,ACTGCCTC,0.0135
15,CAAGACCG,-0.11
16,CTCTGAAG,-0.265
17,CATGAGAC,-0.0853
18,ATCATCCA,0.217
19,AACCGTCT,-0.303
20,TGGCCTAA,-0.0968
21,TGCATCAA,0.153
22,ATATAAAG,0.137
23,GGCGCATA,0.102
24,TGACTGCA,-0.134
25,CTGGAGAC,-0.0883

row,Sequence,PBM E-score
1,AAAGGACG,-0.0147
2,AAAAATTG,-0.0306
3,CGACATAG,0.00383
4,TGGCATAA,0.221
5,CGTACGCA,-0.0964
6,TCCTGCAA,0.00323
7,GGGGCGAC,-0.0471
8,AACCATTC,-0.0296
9,ACATCGCC,0.113
10,CAATGCCA,0.0656
11,CGTTCTTA,0.0141
12,CGCCATAC,-0.0043
13,AGTTTTAT,0.149
14,CCGAAGTA,0.079
15,TAGAAGAA,-0.158
16,AATCAACT,0.17
17,CAAATAAC,0.247
18,ACTGTGCT,-0.0523
19,AGACCCGG,-0.0715
20,CGGTGAGA,0.121
21,ACCCGAGA,0.0718
22,CAATACAC,0.00745
23,CACTGGCG,-0.0347
24,GGGCCTAC,-0.301
25,ATGTCCCG,0.0449

row,Sequence,PBM E-score
1,GCACCACC,-0.0982
2,CCTACAAA,-0.0136
3,GCCGTAGC,-0.187
4,CGTCAGAG,0.00218
5,GTGTTACA,-0.0531
6,GACGACAA,0.25
7,AAACGCTA,-0.192
8,AGGCGATA,-0.024
9,AGCCGCCA,-0.254
10,TCACGGAA,0.205
11,AAGCATCC,-0.078
12,CGGGCTCA,-0.312
13,CTATTAAG,-0.041
14,CGGAGACC,-0.167
15,CTGACAGA,0.125
16,AACCACAC,0.136
17,TATCAATA,0.0764
18,AGTAAAAT,0.0398
19,ATTGGAAA,0.0806
20,GCCTAACA,-0.00038
21,GTACCTTA,0.0338
22,CAATGCAA,0.0944
